Results published in patent US20220362254A1, “METHODS FOR REPROGRAMMING CANCER CELLS” (Thomas Jefferson University, priority 2019, published 2022).
For at least one compound, name, drawing or mass did not settle the structure.

Key:
GR target genes = assay: qRT-PCR of differentiation-associated (GR target) genes in THP-1, SEM and HH cells; format: cell-based, human; conditions: 24 hr
Experimental: Graphs show induction of transcription of GR target genes. […] Graphs show induction of transcription of GR target genes. FIG. 17C The T-ALL HH cells were untreated (Untr) or treated with 1 μM EPZ for 24 hr. […] Bottom graph, cells were then treated with 1 μM of ISX-9 for 72 hr or with combinations of EPZ and ISX9. Analysis by qRT-PCR.
Gene expression analysis by RT-qPCR: Total RNA was isolated directly from freshly collected hESCs with TRIzol and for mESCs with High Pure RNA Isolation Kit. cDNA was synthesized by using 1 μg total RNA in a 20 μL reaction with Superscript III and oligo (dT) for hESC or random hexamers (Life Tech) for mECS. After reverse transcription was complete, one microliter of RNase H was added to each reaction tube, and the tubes were incubated for 20 min at 37° C. before proceeding to PCR. Real-time PCR was carried out on a 7500 Real-Time PCR System using the 2× Power SYBR green PCR master mix. GAPDH was used as an internal control. All PCR products were checked by running an agarose gel for the first time and by doing dissociation assay every time to exclude the possibility of multiple products. PCR analyses were conducted in triplicate for each sample.
Graphs show induction of transcription of GR target genes. […] Graphs show induction of transcription of GR target genes. […]

THP-1 Luc+ cells = assay: THP-1 Luc+ xenograft AML model, bioluminescence; format: in vivo; conditions: NRG mice, THP-1 Luc+ 1×10^6/mouse; 30 days post injection
SEM-1 (Luc+) cells = assay: SEM-1 Luc+ xenograft leukemia model, bioluminescence; format: in vivo; conditions: NRG mice, SEM-1 Luc+ 1×10^6/mouse; 21 days post SEM cell injection
SEM cells = assay: Survival of SEM cells after synchronizing with Palbociclib (Sytox Green); conditions: 500 nM Palbociclib pre-treatment, then 100 nM EPZ, then 10 nM Dexamethasone or 250 nM ISX-9, 10 days
[1] = tested on: patient-derived B-ALL cells; assay: Annexin V positivity of patient-derived B-ALL cells (flow cytometry); format: cell-based, human; conditions: three B-ALL patient samples; 500 nM EPZ 24 hours, then inducer; 7 days after addition of inducers
H3K27me3 = assay: CAA: H3K27me3 on nascent chromatin of TCL cells (HUT78); format: cell-based, human
Experimental: FIG. 10B: HUT78 cells were induced with 0.2 μM of RXR for the indicated times. Cells were labeled with EdU for 15 min, and CAA was performed between Biotin (EdU) and H3K27me3 antibody. PLA only is shown in the lower panel.
FIGS. 15A-15C illustrate the effect of EPZ and small molecule ligand treatment on TF binding. […] Cells were immunostained with antibodies to LXRa (left), and GR (right). Nuclei stained by DAPI are shown in the lower panel. […] In FIG. 15C, T-ALL CCRF-HSB-2 cells were untreated or treated for 6 hr with 5 μM of ISX9, or pre-treated with 0.5 μM EPZ and then treated for 6 hr with 5 μM of ISX9. In FIG. 15B and FIG. 15C, DNA was labeled with EdU for 15 min. […]
Chromatin assembly assay: Cells were grown on chamber slides, pulse-labeled with 5 μM EdU and fixed at room temperature with 4% formaldehyde in PBS for 15 min, washed with PBS, and permeabilized with 0.3% Triton for 15 min. […] The results of CAA experiments shown in FIG. 1A were quantified by counting the number of PLA signals per EdU-labeled nuclei in 50 cells of each of the three independent experiments. The nature of the results in the rest of the figures alleviated the need to quantify the results of these assays.
New approaches to study the fate of chromatic-associated proteins following DNA replication were developed. […] Reliable pulse-chase EdU labeling in cells can be detected from 3-5 min to several hours. […]

In the case of `C[C@@H]1C[C@H]2[C@@H]3CCC4=CC(=O)C=C[C@]4(C)[C@@]3(F)[C@@H](O)C[C@]2(C)[C@@]1(O)C(=O)CO` [Dexamethasone], the “expression of differentiation-associated genes vs untreated cells” value (GR target genes) is reported as “no statistical difference”, the “THP-1 cell growth / outgrowth (bioluminescence fold-changes) vs untreated control animals” value (THP-1 Luc+ cells) is reported as “little effect” and the “leukemia burden / growth of the cancer cells (bioluminescence fold-changes) vs untreated mice” value (SEM-1 (Luc+) cells) is reported as “no statistical difference”.
`CC(=O)c1c(C)c2cnc(Nc3ccc(N4CCNCC4)cn3)nc2n(C2CCCC2)c1=O` [Palbociclib, 6-acetyl-8-cyclopentyl-5-methyl-2-(5-piperazin-1-yl-pyridin-2-ylammino)-8H-pyrido-[2,3-d]-pyrimidin-7-one] was tested, and the “effect of synchronizing on inhibition of survival of SEM cells by Dexamethasone or ISX-9” value (SEM cells) was “strongly increases”.
`CCN(c1cc(-c2ccc(CN3CCOCC3)cc2)cc(C(=O)NCc2c(C)cc(C)[nH]c2=O)c1C)C1CCOCC1` [Tazemetostat, tazemetostat] was tested, and the “expression of differentiation-associated genes vs untreated cells” value (GR target genes) was “no statistical difference”, the “Annexin V positivity” value [1] was “little effect” and the “levels of global and nascent chromatin marked with H3K27me3” value (H3K27me3; 24 hr, 0.5-1 μM range, tested by CAA) was “marked decrease”. The “accumulation of H3K27me3 on nascent chromatin” value (H3K27me3; HUT78 cells, 1 μM for 24 hr) was “completely inhibited”.
